Literature values, collected in patent US20260210975A1, “DIAGNOSIS AND TREATMENT OF LONG-COVID” (priority 2022, published 2026).

Sequences of proteins named here, by UniProt entry; tags and fusion partners are left off. A change or cut given only in a name is not applied to a line headed by its entry.
UniProt Q12809: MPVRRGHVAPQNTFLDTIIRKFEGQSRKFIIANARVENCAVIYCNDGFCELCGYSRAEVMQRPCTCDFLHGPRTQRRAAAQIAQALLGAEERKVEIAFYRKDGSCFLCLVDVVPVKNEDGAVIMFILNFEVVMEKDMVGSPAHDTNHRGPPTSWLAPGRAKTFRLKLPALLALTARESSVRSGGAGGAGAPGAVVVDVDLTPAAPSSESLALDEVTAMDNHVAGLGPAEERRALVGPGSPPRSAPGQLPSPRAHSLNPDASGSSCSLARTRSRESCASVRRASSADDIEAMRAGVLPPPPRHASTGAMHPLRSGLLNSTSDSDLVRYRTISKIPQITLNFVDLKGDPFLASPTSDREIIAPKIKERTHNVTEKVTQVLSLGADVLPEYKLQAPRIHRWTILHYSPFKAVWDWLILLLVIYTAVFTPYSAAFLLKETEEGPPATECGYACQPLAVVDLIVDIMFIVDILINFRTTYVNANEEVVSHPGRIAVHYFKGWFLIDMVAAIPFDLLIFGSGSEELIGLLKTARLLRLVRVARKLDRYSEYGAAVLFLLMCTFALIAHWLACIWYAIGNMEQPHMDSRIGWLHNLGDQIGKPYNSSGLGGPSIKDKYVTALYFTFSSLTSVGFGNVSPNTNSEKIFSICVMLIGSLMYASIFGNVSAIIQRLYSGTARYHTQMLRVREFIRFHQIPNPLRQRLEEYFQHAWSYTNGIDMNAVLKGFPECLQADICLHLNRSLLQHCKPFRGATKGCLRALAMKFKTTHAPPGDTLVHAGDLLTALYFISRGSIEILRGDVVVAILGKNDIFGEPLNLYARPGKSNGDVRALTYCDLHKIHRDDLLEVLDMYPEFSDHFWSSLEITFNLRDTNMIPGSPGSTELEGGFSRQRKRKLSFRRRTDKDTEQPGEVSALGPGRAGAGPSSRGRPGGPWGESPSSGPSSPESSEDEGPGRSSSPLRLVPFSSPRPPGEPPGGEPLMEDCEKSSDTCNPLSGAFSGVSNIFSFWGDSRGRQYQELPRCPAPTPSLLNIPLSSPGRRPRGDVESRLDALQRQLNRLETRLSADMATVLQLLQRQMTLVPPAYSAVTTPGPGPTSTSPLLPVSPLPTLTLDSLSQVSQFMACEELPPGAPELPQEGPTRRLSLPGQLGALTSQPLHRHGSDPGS

Target: KCNH2 (Homo sapiens, UniProt Q12809)

Compound: CN(C)CCC=C1c2ccccc2COc2ccccc21 [doxepin]
- IC50: ~4 µM
